Measurements reported in PubChem BioAssay (EPA / NIEHS).
Values joined by “and” are separate entries in the source; they are usually repeats but may differ in a detail not shown here. Equal entries are not always repeated. Inconclusive means that the source gave no clear call. Such entries were picked first, then a sample of the others. Potencies of inconclusive entries are doubtful fits and often do not repeat. Some compounds were tested as several samples or in several runs, with calls that do not always agree. Active and inactive are the calls of the source. The calls were made as follows: active = hit-call score of the fitted dose curve at least 0.9, where 1 is the maximum; inconclusive = response in the unintended direction; inactive = score below 0.9.

Amino acid sequences for entries named in this document (tags omitted).
UniProt P17948, whole entry, looked up: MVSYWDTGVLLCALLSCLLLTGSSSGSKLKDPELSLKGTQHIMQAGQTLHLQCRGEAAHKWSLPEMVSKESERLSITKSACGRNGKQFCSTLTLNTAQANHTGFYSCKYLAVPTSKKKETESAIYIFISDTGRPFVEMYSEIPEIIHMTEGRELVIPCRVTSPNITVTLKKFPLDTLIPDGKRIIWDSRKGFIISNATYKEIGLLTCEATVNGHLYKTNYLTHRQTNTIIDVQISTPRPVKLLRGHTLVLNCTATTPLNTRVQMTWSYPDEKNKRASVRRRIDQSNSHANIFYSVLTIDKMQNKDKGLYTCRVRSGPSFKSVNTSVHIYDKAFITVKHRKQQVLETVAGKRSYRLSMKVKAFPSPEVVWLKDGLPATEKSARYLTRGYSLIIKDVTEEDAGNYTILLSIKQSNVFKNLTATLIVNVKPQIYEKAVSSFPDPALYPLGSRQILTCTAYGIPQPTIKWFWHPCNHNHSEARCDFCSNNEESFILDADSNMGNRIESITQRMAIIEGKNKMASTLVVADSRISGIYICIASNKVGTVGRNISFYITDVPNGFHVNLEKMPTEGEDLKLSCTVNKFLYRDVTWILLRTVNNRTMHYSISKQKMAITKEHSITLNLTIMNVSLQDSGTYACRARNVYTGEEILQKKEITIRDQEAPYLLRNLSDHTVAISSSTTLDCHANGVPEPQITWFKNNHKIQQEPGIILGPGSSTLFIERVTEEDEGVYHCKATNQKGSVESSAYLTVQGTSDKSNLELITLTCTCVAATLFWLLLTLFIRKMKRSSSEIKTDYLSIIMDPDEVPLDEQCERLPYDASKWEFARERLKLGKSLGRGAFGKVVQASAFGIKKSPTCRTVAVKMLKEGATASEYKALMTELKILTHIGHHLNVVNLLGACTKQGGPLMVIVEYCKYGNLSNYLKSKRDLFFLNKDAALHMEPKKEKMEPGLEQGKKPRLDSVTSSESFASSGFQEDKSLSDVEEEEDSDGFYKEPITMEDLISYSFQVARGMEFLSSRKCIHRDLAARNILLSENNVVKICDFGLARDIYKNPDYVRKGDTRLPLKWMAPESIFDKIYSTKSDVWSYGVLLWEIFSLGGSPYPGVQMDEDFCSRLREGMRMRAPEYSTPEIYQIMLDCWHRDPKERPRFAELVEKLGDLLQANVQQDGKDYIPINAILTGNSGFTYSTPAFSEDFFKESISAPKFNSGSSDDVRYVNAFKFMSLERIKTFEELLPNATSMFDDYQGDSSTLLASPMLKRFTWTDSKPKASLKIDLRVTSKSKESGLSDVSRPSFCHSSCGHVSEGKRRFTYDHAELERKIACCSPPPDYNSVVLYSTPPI

What follows are compounds tested against human Vascular Endothelial Growth Factor Receptor 1 (VEGFR1), FLT1 (gene 2321) (UniProt P17948) (assay: NVS_ENZ_hVEGFR1: NovaScreen (NVS) Enzymatic Assay for human Vascular Endothelial Growth Factor Receptor 1 (VEGFR1) (AID 2283226)).
Procedure: NVS_ENZ_hVEGFR1 is a biochemical, single-readout assay that uses extracted gene-proteins in a cell-free assay. Measurements were taken 1 hour after chemical dosing in a 384-well plate.NVS_ENZ_hVEGFR1 is one of one assay component(s) measured or calculated from the NVS_ENZ_hVEGFR1 assay. It is designed to make measurements of enzyme activity, a form of enzyme reporter, as detected with fluorescence intensity signals by Fluorescence and electrophoretic mobility shift technology.Data from the assay component NVS_ENZ_hVEGFR1 was analyzed into 1 assay endpoint. This assay endpoint, NVS_ENZ_hVEGFR1, was analyzed in the positive analysis fitting direction relative to DMSO as the negative control and baseline of activity. Using a type of enzyme reporter, loss-of-signal activity can be used to understand changes in the enzymatic activity as they relate to the gene FLT1. Furthermore, this assay endpoint can be referred to as a primary readout, because this assay has produced multiple assay endpoints where this one serves a enzymatic activity function. To generalize the intended target to other relatable targets, this assay endpoint is annotated to the kinase intended target family, where the subfamily is receptor tyrosine kinase.
Binding assays used specific radioligands (tritiated, iodinated) with non-radioactive competitive displacement ligands in agonist or antagonist protocols (as indicated) and various reference compounds and inhibitors to titrate specific binding to receptors and transporters. Most enzyme assays (CYPs, kinases, phosphatases, proteases, HDACs) used recombinant protein and specific substrates (fluorescence mostly, some colorimetric and radioactive) and inhibitors, followed by a biochemical separation of substrate and product. All assays for the biochemical HTS were initially run in duplicate at a single concentration (10 uM for CYP450 assays and 25 uM for all others). […] Each assay was run with positive and negative controls, and concurrent controls on every plate. The follow-up (secondary) screen tested active chemical-pairs in concentration series, as well as a few additional assays not tested in the primary screen, some selected negative inactives, and several cases re-run in the concentration series for confirmatory purposes.

Structure (SMILES) | AC50 | outcome
CC(C)(C)c1ccc(CCOc2ncnc3ccccc23)cc1 | inconclusive: 6.88 µM | –
CCOP(=S)(OCC)SCn1nnc2ccccc2c1=O | inconclusive: 25 µM | –
Nc1ccc(-c2ccc(N)c(Cl)c2)cc1Cl | inconclusive: 25 µM | –
Clc1cccc(Cl)c1Cl | – | inactive
COc1ccc(N)cc1 | inconclusive: 0.00238 µM | –
O=c1[nH]c2ccccc2c(=O)o1 | inconclusive: 25 µM | –
CN(C)[C@@H]1C(=O)C(C(N)=O)=C(O)[C@@]2(O)C(=O)C3=C(O)c4c(O)cccc4[C@@](C)(O)[C@H]3[C@H](O)[C@@H]12 | active: 3.49 µM | inactive
COP(=O)(NC(C)=O)SC (stereo not given) | inconclusive: 25 µM | –
CC1CC(=O)O1 (stereo not given) | inconclusive: 6.63 µM | –
COc1ccccc1N | inconclusive: 0.329 µM | –
CCOP(=S)(OCC)SCSc1ccc(Cl)cc1 | inconclusive: 25 µM | –
Nc1ncc([N+](=O)[O-])s1 | active: 40.4 µM | –
CCOP(=S)(OCC)Oc1ccc(S(C)=O)cc1 (stereo not given) | – | inactive
Nc1c(Oc2ccccc2)cc(O)c2c1C(=O)c1ccccc1C2=O | active: 0.898 µM | –
C=CCCl | inconclusive: 25 µM | –
O=S(=O)(c1ccccc1)c1ccccc1 | inconclusive: 29.4 µM | –
N#CC(Br)(Br)C(N)=O | inconclusive: 2.15 µM | –
CCCCCCCCCCCC#N | inconclusive: 3.79 µM | –
CCOP(=S)(OCC)OC(Cl)C(Cl)(Cl)Cl (stereo not given) | inconclusive: 25 µM | –
CCOP(=S)(OCC)OP(=S)(OCC)OCC | inconclusive: 0.626 µM | –
CCCCCCCCCCCCc1cccc(S(=O)(=O)O)c1 | active: 22.9 µM | –
CCN(CC)N=O | – | inactive
CCOP(=S)(OCC)SCCSCC | – | inactive
CCNc1nc(NC(C)(C)C)nc(SC)n1 | inconclusive: 2 µM | –
COP(=S)(OC)Oc1cc(Cl)c(Cl)cc1Cl | – | inactive
O=[N+]([O-])C=Cc1ccccc1 | inconclusive: 0.00254 µM | –
O=S(=O)(O)C(F)(F)C(F)(F)C(F)(F)C(F)(F)C(F)(F)C(F)(F)C(F)(F)C(F)(F)F | active: 11.9 µM and active: 11.4 µM and active: 8.57 µM | –
O=C(O)C(F)(F)C(F)(F)C(F)(F)C(F)(F)C(F)(F)C(F)(F)C(F)(F)C(F)(F)F | – | inactive
BrCBr | – | inactive

An excerpt from above in order of length of the SMILES, descending.
Structure (SMILES) | AC50 | outcome
CN(C)[C@@H]1C(=O)C(C(N)=O)=C(O)[C@@]2(O)C(=O)C3=C(O)c4c(O)cccc4[C@@](C)(O)[C@H]3[C@H](O)[C@@H]12 | active: 3.49 µM | inactive
Nc1c(Oc2ccccc2)cc(O)c2c1C(=O)c1ccccc1C2=O | active: 0.898 µM | –
Clc1cccc(Cl)c1Cl | – | inactive
